Assay results published in the supplement of paper PMC12067093, “Discovery and optimisation of a covalent ligand for TRIM25 and its application to targeted protein ubiquitination” (Chemical Science, 2025).
This is one part of the list.

Amino acid sequences for entries named in this document (tags omitted). A change or cut given only in a name is not applied to a line headed by its entry.
UniProt P01023, whole entry: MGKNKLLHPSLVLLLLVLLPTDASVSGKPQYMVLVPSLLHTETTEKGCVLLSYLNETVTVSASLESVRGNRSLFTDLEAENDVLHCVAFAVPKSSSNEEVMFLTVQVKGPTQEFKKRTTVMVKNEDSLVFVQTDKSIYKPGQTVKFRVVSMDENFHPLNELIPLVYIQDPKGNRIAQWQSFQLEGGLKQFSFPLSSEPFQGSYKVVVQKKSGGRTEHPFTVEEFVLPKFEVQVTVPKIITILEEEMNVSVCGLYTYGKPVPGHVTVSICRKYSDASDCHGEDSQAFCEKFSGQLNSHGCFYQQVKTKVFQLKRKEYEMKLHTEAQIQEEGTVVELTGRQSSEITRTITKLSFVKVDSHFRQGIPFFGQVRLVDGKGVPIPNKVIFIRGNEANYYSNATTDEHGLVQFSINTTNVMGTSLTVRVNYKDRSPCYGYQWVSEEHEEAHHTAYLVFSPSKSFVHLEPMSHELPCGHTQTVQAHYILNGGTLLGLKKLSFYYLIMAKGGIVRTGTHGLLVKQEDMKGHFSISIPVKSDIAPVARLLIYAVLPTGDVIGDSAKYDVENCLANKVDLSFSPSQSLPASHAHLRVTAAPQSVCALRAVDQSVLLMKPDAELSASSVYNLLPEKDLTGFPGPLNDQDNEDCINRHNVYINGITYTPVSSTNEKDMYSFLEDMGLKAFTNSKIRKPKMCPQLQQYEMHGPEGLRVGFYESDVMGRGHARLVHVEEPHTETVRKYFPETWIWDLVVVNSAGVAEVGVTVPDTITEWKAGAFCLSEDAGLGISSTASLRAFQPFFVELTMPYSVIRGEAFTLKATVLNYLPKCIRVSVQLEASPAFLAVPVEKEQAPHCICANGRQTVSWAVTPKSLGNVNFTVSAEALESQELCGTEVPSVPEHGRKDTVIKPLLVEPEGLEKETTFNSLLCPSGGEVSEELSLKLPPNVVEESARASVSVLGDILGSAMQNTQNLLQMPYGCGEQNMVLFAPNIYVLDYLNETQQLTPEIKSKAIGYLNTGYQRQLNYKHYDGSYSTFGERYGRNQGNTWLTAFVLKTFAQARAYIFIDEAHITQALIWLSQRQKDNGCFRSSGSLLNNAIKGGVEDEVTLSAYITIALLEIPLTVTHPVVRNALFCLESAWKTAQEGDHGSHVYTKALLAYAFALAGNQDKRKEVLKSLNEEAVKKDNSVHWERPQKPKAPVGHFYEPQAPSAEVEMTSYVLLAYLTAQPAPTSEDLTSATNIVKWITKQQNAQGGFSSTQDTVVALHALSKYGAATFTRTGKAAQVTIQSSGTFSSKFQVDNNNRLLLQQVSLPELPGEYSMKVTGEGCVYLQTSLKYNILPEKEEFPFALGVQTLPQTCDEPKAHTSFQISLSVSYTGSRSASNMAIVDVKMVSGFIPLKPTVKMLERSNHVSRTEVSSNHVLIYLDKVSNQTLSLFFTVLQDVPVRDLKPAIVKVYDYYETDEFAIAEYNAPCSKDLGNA
UniProt Q2M2I8: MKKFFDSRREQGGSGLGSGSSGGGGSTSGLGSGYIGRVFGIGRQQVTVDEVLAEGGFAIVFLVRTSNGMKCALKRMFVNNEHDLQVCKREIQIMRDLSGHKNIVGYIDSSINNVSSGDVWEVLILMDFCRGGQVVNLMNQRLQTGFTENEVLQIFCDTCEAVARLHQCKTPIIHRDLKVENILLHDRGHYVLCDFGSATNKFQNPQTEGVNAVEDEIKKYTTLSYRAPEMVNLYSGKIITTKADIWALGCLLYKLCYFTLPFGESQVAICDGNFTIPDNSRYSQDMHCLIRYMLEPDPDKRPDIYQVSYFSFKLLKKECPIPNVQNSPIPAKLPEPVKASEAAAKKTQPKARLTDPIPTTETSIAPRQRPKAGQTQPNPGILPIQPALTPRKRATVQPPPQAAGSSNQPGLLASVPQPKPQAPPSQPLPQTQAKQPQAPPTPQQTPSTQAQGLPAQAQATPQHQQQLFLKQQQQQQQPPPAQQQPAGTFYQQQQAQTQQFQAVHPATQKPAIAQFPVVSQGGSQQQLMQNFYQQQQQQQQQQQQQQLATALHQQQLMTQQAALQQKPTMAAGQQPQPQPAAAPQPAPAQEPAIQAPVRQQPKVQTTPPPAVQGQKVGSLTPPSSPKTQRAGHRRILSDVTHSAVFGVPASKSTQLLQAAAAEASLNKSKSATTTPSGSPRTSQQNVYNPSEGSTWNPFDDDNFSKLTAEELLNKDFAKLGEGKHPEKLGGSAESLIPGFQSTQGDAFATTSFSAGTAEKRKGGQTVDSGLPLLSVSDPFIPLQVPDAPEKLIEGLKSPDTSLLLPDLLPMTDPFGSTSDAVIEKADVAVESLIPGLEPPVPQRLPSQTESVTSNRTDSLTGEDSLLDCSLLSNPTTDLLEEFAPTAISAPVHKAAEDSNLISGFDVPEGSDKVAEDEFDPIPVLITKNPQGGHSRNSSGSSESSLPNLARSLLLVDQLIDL
UniProt P21399: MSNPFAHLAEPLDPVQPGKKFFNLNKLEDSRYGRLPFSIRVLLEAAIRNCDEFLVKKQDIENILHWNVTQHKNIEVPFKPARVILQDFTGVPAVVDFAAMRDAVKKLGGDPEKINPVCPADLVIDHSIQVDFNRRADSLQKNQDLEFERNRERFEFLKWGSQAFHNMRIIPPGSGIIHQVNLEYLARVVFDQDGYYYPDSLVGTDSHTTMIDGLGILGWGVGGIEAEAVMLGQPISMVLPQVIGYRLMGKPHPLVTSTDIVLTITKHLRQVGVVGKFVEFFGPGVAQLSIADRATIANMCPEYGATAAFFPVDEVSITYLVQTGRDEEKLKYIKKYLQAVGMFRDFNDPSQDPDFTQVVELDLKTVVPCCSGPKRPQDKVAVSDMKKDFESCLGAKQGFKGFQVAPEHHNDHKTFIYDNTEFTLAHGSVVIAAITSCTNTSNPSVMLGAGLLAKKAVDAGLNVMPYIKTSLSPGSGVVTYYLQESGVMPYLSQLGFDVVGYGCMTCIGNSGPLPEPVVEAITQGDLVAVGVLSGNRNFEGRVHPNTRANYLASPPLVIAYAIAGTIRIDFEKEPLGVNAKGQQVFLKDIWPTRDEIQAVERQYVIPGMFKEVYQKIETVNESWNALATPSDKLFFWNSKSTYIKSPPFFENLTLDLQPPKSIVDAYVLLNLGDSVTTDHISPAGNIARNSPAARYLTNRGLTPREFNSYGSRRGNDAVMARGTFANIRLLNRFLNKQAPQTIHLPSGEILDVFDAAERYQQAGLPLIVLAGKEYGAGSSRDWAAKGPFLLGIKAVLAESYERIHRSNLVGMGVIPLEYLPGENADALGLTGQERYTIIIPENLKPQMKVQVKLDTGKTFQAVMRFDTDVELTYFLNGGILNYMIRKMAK
UniProt Q9NUJ1: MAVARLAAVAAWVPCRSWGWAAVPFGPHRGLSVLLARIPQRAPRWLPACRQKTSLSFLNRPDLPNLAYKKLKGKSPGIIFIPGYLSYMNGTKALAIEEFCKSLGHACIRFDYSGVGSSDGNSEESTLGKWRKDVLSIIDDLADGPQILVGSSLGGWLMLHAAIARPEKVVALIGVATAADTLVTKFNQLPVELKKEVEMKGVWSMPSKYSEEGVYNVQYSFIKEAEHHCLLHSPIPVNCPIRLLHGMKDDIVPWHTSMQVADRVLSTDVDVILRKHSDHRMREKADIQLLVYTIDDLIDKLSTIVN
UniProt Q9BTE6: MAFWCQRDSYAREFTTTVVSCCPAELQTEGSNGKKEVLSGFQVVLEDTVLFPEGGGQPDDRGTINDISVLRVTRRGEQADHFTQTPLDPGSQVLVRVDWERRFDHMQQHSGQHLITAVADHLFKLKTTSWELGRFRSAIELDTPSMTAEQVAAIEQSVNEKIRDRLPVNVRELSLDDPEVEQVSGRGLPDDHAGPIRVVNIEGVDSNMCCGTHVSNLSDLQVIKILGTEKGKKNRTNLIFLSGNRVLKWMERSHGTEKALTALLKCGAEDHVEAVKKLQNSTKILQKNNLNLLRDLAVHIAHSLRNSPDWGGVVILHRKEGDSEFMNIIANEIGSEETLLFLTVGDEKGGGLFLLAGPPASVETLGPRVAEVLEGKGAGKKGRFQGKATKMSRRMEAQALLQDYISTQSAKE
UniProt P42765: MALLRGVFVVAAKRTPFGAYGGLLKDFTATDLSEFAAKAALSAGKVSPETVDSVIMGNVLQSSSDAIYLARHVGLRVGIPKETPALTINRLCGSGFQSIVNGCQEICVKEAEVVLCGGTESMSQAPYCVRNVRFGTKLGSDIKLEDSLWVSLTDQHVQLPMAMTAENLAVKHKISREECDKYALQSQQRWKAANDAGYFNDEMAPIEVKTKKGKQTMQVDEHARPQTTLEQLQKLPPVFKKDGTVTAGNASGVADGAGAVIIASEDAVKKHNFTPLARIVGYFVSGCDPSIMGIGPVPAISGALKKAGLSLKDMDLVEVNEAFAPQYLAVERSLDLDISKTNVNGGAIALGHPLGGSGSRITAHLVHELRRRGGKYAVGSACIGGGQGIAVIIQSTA
UniProt O95870: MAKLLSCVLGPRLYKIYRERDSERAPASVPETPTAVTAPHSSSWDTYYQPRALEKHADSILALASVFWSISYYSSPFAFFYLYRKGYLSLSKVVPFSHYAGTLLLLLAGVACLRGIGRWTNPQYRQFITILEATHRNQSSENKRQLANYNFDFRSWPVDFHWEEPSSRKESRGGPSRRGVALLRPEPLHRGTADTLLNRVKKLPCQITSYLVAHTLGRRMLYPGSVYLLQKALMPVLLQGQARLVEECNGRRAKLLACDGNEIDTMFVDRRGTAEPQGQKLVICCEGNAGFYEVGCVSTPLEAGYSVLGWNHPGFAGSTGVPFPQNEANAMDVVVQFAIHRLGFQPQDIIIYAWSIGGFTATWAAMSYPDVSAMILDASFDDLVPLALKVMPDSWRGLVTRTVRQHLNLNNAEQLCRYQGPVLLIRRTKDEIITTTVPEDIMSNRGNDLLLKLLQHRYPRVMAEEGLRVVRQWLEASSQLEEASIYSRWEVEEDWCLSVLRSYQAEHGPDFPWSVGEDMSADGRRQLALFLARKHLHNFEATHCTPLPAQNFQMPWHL
UniProt Q9Y312: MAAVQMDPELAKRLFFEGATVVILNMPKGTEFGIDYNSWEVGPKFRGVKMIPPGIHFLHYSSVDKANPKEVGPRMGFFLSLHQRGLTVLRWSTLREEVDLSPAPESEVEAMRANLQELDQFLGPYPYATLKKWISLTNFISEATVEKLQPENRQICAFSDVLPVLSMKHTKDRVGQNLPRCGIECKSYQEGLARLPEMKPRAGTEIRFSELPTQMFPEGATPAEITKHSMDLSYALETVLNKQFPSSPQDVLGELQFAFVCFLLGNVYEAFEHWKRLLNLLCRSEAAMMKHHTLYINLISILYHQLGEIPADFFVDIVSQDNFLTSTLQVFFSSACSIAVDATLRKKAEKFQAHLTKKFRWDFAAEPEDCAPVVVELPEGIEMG
UniProt Q9H3P7: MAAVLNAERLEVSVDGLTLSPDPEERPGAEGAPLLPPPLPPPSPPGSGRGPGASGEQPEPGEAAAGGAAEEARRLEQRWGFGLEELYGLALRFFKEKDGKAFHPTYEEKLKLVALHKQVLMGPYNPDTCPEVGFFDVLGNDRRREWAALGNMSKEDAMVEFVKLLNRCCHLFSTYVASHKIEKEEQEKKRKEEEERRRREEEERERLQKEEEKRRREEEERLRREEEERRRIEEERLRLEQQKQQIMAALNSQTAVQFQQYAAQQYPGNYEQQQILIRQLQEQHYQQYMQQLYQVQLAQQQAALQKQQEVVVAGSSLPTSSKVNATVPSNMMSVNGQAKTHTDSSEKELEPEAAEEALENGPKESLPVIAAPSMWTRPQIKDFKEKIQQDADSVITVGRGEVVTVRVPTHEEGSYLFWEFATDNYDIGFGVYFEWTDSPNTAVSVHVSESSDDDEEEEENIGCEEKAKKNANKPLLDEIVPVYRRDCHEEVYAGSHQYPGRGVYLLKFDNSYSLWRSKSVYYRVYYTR
UniProt Q9P1F3: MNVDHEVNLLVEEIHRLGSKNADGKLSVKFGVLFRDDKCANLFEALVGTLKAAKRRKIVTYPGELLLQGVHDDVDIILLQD
UniProt P24752: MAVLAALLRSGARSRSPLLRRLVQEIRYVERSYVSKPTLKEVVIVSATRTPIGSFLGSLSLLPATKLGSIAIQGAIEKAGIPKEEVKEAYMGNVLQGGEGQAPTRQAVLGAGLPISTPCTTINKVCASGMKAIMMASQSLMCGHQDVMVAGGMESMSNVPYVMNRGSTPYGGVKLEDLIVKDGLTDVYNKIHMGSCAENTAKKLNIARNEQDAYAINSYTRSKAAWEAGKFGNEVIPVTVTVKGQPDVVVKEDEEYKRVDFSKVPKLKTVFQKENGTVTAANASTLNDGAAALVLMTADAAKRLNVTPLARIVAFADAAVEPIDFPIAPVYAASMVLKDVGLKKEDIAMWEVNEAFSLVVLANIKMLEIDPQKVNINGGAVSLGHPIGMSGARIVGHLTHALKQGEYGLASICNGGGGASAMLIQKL

Compound: CC1Cc2ccccc2N1C(=O)C1CCCN(C1)C(=O)CCl (mixture of isomers) [TRIM25 ligand 11 (diastereomer mixture)]
Assay: probe-labelled cysteine peptide fold change vs DMSO (competition) (log2 fold change); higher = less target engagement (more negative = stronger competition)
Conditions: THP-1, incubation time: 4 h
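Also: competitive chemoproteomic profiling in live THP-1 cells with an iodoacetamide desthiobiotin (IA-DTB) probe, comparing probe-labelled peptide intensities in compound-treated cells against DMSO-treated controls.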

Row | Target | probe-labelled cysteine peptide fold change (10 µM) | probe-labelled cysteine peptide fold change (50 µM)
1 | AARS_P49588_525_MFVEEVSTGQECGVVLDK (UniProt P49588) | -0.0692 | -0.174
2 | A2M_P01023_299_FSGQLNSHGCFYQQVK (UniProt P01023) | 0.155 | 0.133
3 | ACLY_P53396_519_AVQGMLDFDYVCSRDEPSVAAMVYPFTGDHK (UniProt P53396) | -0.331 | -0.255
4 | AAK1_Q2M2I8_193_GHYVLCDFGSATNK (UniProt Q2M2I8) | 0.0518 | 0.121
5 | ACO1_P21399_392_DFESCLGAK (UniProt P21399) | -0.0218 | 0.111
6 | ABHD10_Q9NUJ1_229+239_EAEHHCLLHSPIPVNCPIR (UniProt Q9NUJ1) | 0.161 | 0.0305
7 | AACS_Q86V21_299_CMVHSAGGTLIQHLK (UniProt Q86V21) | -0.0715 | 0.154
8 | AARSD1_Q9BTE6_266_CGAEDHVEAVK (UniProt Q9BTE6) | 0.0742 | 0.0313
9 | AARS2_Q5JTZ9_749_VVSVGVPVAHALDPASQAALQTSVELCCGTHLLR (UniProt Q5JTZ9) | -0.176 | -0.194
10 | AARS2_Q5JTZ9_300_HSTYDTDLFSPLLNAIQQGCR (UniProt Q5JTZ9) | 0.22 | 0.0945
11 | ACAA2_P42765_128_EAEVVLCGGTESMSQAPYCVR (UniProt P42765) | -0.196 | 0.031
12 | AARS_P49588_723_VVSIGVPVSELLDDPSGPAGSLTSVEFCGGTHLR (UniProt P49588) | -0.104 | 0.00801
13 | ABHD16A_O95870_205_KLPCQITSYLVAHTLGR (UniProt O95870) | -0.152 | 0.0294
14 | ACADVL_P49748_237_TSAVPSPCGK (UniProt P49748) | -0.126 | -0.057
15 | ABHD16A_O95870_544_HLHNFEATHCTPLPAQNFQMPWHL (UniProt O95870) | -0.0573 | -0.298
16 | AAR2_Q9Y312_156_QICAFSDVLPVLSMK (UniProt Q9Y312) | -0.212 | -0.0154
17 | ACAP2_Q15057_329_FCFEVVSPTK (UniProt Q15057) | 0.185 | 0.153
18 | ACACA_Q13085_1176_DNTCVVEFQFMLPTSHPNR (UniProt Q13085) | -0.0885 | 0.0228
19 | ABCE1_P61221_201_TQAIVCQQLDLTHLK (UniProt P61221) | -0.0454 | -0.0454
20 | ACBD3_Q9H3P7_487_DCHEEVYAGSHQYPGR (UniProt Q9H3P7) | -0.0193 | 0.00597
21 | ABRACL_Q9P1F3_39_CANLFEALVGTLK (UniProt Q9P1F3) | -0.105 | -0.0941
22 | ABCE1_P61221_65_CPFGALSIVNLPSNLEK (UniProt P61221) | 0.107 | 0.155
23 | ABI1_Q8IZP0_488_KNDDGWYEGVCNR (UniProt Q8IZP0) | -0.0466 | -0.111
24 | ACAT1_P24752_119_QAVLGAGLPISTPCTTINK (UniProt P24752) | 0.0397 | -0.0258
25 | ACAT1_P24752_413_QGEYGLASICNGGGGASAMLIQKL (UniProt P24752) | -0.402 | -0.249

Reprinted at random: two records from the list
Row | Target | probe-labelled cysteine peptide fold change (10 µM) | probe-labelled cysteine peptide fold change (50 µM)
22 | ABCE1_P61221_65_CPFGALSIVNLPSNLEK (UniProt P61221) | 0.107 | 0.155
16 | AAR2_Q9Y312_156_QICAFSDVLPVLSMK (UniProt Q9Y312) | -0.212 | -0.0154
